Source: publication PMC10553838, “Functional and structural insights into the multi-step activation and catalytic mechanism of bacterial ExoY nucleotidyl cyclase toxins bound to actin-profilin” (PLOS Pathogens, 2023)
These are yes or no findings as the source states them, for the method shown.

Target: Pa-ExoY (Exoenzyme Y of Pseudomonas aeruginosa), residues 20 to 378, wild type (Pseudomonas aeruginosa) (UniProt O85345)
Test: SEC; both purified

“Pa-ExoY (Exoenzyme Y of Pseudomonas aeruginosa), residues 20 to 378, wild type (from UniProt O85345 20-378)” was tested, and the binding was “no binding (tested: between 2 and 5 μM)”.
